In paper PMC6001170:
Results are given in words; binding and its absence hold for the method and conditions named. Binding seen in cells or lysates may run through a third protein. Some binding calls cover weakened binding; strength is not graded here.

The chains behind the UniProt entries cited, without tags or fusion partners.
UniProt Q96A61: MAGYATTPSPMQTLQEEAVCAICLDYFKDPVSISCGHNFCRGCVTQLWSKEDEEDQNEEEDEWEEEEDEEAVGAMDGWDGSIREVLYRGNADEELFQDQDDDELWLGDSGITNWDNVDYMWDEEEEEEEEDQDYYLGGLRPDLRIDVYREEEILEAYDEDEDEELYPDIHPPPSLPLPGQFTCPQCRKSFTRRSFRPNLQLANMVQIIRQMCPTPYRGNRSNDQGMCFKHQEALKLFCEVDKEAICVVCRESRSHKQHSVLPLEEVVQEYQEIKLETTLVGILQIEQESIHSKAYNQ

Biological target: T1, Protein phosphatase, Mg2+/Mn2+ dependent 1A (PPM1A) (human (in the human cell lines MHCC-97H and MHCC-97L)) (UniProt P35813)
T1 sequence: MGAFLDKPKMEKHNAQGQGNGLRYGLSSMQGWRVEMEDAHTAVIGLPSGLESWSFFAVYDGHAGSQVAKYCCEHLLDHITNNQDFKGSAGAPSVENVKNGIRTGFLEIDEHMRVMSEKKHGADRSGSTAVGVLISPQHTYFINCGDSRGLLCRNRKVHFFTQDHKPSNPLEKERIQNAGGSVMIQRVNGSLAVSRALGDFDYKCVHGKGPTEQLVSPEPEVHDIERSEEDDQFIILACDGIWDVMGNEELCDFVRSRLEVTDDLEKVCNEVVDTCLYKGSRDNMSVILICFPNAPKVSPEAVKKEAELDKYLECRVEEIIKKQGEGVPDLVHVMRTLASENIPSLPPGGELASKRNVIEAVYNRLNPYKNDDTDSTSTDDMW
Assay: co-IP; lysates of MHCC-97H and MHCC-97L cells in lysis buffer with protease inhibitors; supernatants incubated with normal IgG or antibody, Protein A-Sepharose; Western blot with anti-TRIM52 and anti-PPM1A

binding: binds
Substance: Tripartite motif containing 52 (TRIM52) (from UniProt Q96A61 1-297)
